The experiment concerns the target HA-IDO1 (indoleamine 2,3 dioxygenase 1) expressed in HCT116 and SW480 cells (not stated (human or mouse cDNA cloned)) (UniProt P14902). The experiment in a line: affinity purification with mass spectrometry; HCT116 and SW480 cells transfected with HA-IDO1 or vector; lysates immunoprecipitated with HA-beads; washed six times (150 mM NaCl, 10 mM HEPES pH 7.4, 0.1% NP-40); eluted with 1 M glycine pH 3.0; MS.

The chains behind the UniProt entries cited, without tags or fusion partners.
UniProt P14902: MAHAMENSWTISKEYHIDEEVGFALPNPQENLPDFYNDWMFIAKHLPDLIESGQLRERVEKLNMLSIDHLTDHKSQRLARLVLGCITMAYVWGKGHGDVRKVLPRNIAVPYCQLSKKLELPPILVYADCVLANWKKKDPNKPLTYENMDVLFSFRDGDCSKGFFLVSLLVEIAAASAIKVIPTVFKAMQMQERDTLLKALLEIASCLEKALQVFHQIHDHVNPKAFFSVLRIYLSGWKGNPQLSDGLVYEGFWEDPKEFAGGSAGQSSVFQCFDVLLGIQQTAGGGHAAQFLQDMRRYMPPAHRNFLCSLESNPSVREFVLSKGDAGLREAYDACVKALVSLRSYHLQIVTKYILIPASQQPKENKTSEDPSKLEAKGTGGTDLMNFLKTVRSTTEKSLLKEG
UniProt P45974: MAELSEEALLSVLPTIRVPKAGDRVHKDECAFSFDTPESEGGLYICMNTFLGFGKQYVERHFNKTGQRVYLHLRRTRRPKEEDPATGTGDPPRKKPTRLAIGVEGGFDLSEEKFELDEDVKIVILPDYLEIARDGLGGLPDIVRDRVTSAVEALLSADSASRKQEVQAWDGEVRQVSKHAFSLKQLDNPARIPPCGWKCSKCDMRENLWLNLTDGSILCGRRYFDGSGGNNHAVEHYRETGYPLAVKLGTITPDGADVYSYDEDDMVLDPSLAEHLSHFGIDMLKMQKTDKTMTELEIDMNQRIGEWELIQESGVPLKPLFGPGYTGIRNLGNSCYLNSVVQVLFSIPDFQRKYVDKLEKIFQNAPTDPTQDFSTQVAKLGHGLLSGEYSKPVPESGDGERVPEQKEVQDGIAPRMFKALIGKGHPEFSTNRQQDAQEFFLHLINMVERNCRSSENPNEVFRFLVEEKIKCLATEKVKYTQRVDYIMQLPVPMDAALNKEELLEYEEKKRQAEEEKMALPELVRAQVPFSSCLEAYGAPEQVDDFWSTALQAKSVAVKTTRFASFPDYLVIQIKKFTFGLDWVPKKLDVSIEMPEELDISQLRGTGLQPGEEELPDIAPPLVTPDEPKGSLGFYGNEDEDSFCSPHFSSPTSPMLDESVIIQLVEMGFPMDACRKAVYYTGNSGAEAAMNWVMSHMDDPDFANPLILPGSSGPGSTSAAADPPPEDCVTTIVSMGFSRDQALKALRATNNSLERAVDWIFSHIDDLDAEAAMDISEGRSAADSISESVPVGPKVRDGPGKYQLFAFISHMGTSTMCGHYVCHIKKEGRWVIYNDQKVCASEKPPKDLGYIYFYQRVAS
UniProt Q93009: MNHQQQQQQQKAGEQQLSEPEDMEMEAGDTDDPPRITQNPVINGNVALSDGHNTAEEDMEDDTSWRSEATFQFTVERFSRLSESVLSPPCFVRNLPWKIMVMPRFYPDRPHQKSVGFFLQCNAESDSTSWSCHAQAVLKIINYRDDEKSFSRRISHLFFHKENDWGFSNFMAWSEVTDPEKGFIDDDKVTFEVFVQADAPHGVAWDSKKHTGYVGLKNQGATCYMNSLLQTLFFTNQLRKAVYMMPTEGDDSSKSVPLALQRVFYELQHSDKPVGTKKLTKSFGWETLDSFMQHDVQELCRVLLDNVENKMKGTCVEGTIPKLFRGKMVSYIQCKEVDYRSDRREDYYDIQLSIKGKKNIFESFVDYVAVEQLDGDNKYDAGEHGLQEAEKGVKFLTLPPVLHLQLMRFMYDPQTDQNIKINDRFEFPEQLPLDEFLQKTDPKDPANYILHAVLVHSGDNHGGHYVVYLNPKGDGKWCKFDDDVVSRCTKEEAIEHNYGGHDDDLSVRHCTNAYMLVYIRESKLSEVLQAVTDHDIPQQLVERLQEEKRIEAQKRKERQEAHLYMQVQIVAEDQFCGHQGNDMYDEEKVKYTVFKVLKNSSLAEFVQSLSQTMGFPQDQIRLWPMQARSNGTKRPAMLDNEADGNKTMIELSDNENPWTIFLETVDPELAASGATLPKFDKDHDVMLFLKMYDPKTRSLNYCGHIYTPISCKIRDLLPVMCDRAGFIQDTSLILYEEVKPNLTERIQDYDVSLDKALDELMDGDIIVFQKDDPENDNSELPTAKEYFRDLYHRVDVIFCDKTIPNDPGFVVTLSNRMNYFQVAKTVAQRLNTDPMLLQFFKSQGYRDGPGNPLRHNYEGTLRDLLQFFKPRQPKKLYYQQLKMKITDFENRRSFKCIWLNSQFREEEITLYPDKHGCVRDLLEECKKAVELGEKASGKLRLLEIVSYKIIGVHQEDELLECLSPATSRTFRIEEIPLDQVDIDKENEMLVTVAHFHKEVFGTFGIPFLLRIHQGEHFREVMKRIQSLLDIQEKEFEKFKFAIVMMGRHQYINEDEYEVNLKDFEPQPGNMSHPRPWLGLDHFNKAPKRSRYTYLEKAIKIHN
UniProt P19474: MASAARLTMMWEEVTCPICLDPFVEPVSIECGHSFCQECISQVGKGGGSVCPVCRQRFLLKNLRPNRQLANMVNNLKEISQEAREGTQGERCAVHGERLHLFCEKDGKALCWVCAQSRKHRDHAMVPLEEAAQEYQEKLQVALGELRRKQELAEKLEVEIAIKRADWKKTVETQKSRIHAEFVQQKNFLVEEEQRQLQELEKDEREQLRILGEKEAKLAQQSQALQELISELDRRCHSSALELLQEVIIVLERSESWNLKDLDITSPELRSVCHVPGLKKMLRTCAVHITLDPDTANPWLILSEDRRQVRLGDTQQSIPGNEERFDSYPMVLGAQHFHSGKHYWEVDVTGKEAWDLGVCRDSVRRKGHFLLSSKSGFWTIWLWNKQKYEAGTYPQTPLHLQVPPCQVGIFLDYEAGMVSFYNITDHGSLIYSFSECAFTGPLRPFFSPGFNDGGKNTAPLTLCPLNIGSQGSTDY

No constants are given. Whether binding was seen depends on the method and setting. Binding seen in cells or lysates may run through a third protein. Here binding means that the protein was enriched with, or labelled near, the bait; the list need not be complete.

Regarding “USP5, endogenous in CRC cells (from UniProt P45974 1-858)”, the binding entry is “binds”.
The entry for “USP7, endogenous in CRC cells (from UniProt Q93009 1-1102)” is “binds”.
Consider “tripartite motif containing 21 (TRIM21), endogenous in CRC cells (from UniProt P19474 1-475)”, for which the binding result is “binds”.

The values are drawn from paper PMC9513055.
